The list is a part of this screen's results and no random one: it is rich in T/C values a quarter to a half above the control, in often repeated tests (any T/C) and in doses without a T/C. Further doses and runs are listed elsewhere. T/C is the treated group as % of the vehicle group. Some doses have a count of surviving animals in place of a T/C: the source files T/C as zero there, which appears to mark a toxic dose or a test without result, not a measured value. Some survivor counts are full or nearly so, which does not show that the dose was tolerated: survival well below the control is almost never listed, so the zero probably covers shortened survival too. Survivors were counted at the toxicity check, usually on the fifth day, unless a day is given; later deaths do not show. Schedule codes are those of the source, read here as Q, the interval in days (D) or hours (H), X, the number of doses. Some doses were run more than once; their values stand side by side, smallest first. Brackets with × say how often a value occurs here. Where survival is the endpoint, this PubChem deposit counts one and a half times the control or more as active, and values a quarter to a half above the control carry no call in these data; other NCI protocols may use other cut-offs. Some T/C values are followed by the survivors on the day toxicity was checked, most often the fifth; where none is given, no animal had died by that day.
Test system: BDF1 mice, P388 leukemia ip, median survival T/C
Assay: NCI In Vivo Anticancer Drug Screen. Data for tumor model P388 Leukemia (intraperitoneal) in B6D2F1 (BDF1) mice
Conditions: T/C endpoint: median survival time, higher T/C = longer survival
Summary of the method: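 Vehicle-dosed animals serve as the reference; survival of compound-dosed, tumour-implanted mice is divided by it.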

[1] = dose: 100.0 mg/kg/injection, schedule: Q01DX009 (ip), vehicle: saline with Tween-80
[2] = dose: 200.0 mg/kg/injection, schedule: Q01DX009 (ip), vehicle: saline with Tween-80
[3] = dose: 400.0 mg/kg/injection, schedule: Q04DX003 (ip), vehicle: saline with Tween-80
[4] = dose: 50.0 mg/kg/injection, schedule: Q04DX003 (ip), vehicle: saline with Tween-80
[5] = dose: 100.0 mg/kg/injection, schedule: Q04DX003 (ip), vehicle: saline with Tween-80

NC(N)=NC(N)=Nc1ccc(Cl)c(Cl)c1
survivor count [1]: 6 of 6
survivor count [2]: 3 of 6

CN(C=C(C#N)C#N)c1ccccc1
survivor count [1]: 5 of 6
survivor count [2]: 0 of 6

Cc1ccc(S(=O)(=O)N/N=C/C(=O)O)cc1
T/C (dose: 12.5 mg/kg/injection, schedule: Q01DX009 (ip), vehicle: Klucel (hydroxypropylcellulose) (HPC)): 128 % of control
T/C (dose: 12.5 mg/kg/injection, schedule: Q01DX009 (ip), vehicle: other): 128 and 135 % of control
T/C (dose: 25.0 mg/kg/injection, schedule: Q01DX009 (ip), vehicle: Klucel (hydroxypropylcellulose) (HPC)): 141 and 149 % of control
T/C (dose: 25.0 mg/kg/injection, schedule: Q01DX009 (ip), vehicle: other, evaluated on day 30): 138, 144, 158 % of control
T/C (dose: 25.0 mg/kg/injection, schedule: Q01DX009 (ip), vehicle: other, evaluated on day 45): 166 % of control
T/C (dose: 50.0 mg/kg/injection, schedule: Q01DX009 (ip), vehicle: other, evaluated on day 30): 181 and 197 % of control
T/C (dose: 50.0 mg/kg/injection, schedule: Q01DX009 (ip), vehicle: other, evaluated on day 45): 175 % of control
survivor count (dose: 50.0 mg/kg/injection, schedule: Q01DX009 (ip), vehicle: other): 6 of 6
T/C (dose: 100.0 mg/kg/injection, schedule: Q01DX009 (ip), vehicle: Klucel (hydroxypropylcellulose) (HPC)): 125 % of control [5 of 6 alive]
T/C (dose: 100.0 mg/kg/injection, schedule: Q01DX009 (ip), vehicle: other, evaluated on day 30): 100 and 103 % of control
T/C (dose: 100.0 mg/kg/injection, schedule: Q01DX009 (ip), vehicle: other, evaluated on day 45): 129 % of control
survivor count (dose: 100.0 mg/kg/injection, schedule: Q01DX009 (ip), vehicle: other): 6 of 6
survivor count (dose: 200.0 mg/kg/injection, schedule: Q01DX009 (ip), vehicle: Klucel (hydroxypropylcellulose) (HPC)): 5 of 6 (2×) and 6 of 6
survivor count (dose: 200.0 mg/kg/injection, schedule: Q01DX009 (ip), vehicle: other): 4 of 6 and 6 of 6
survivor count (dose: 400.0 mg/kg/injection, schedule: Q01DX009 (ip), vehicle: other): 0 of 6

CC1(c2ccco2)C(=O)NC(=O)N1C(=O)CCl (stereo not drawn)
survivor count [2]: 2 of 6
survivor count (dose: 300.0 mg/kg/injection, schedule: Q01DX009 (ip), vehicle: saline with Tween-80): 0 of 6
survivor count [3]: 3 of 6

OC(CCl)CN1CC[N+]2(CC1)CC[N+]1(CCN(CC(O)CCl)CC1)CC2 (stereo not drawn)
T/C (dose: 88.0 mg/kg/injection, schedule: Q01DX009 (ip), vehicle: water): 144 % of control
T/C (dose: 90.0 mg/kg/injection, schedule: Q01DX009 (ip), vehicle: water): 126 % of control
survivor count (dose: 100.0 mg/kg/injection, schedule: Q01DX009 (ip), vehicle: saline): 6 of 6
T/C (dose: 100.0 mg/kg/injection, schedule: Q01DX009 (ip), vehicle: water): 136 % of control
T/C (dose: 132.0 mg/kg/injection, schedule: Q01DX009 (ip), vehicle: water): 148 % of control
survivor count (dose: 200.0 mg/kg/injection, schedule: Q01DX009 (ip), vehicle: saline): 6 of 6
survivor count (dose: 300.0 mg/kg/injection, schedule: Q01DX009 (ip), vehicle: water): 6 of 6
survivor count (dose: 400.0 mg/kg/injection, schedule: Q01DX009 (ip), vehicle: saline): 6 of 6
survivor count (dose: 400.0 mg/kg/injection, schedule: Q01DX009 (ip), vehicle: water): 6 of 6

Cc1[o+]c(C)c2c(c1C)-c1ccccc1C2=O
T/C [4]: 126 % of control
survivor count [4]: 6 of 6
survivor count [5]: 6 of 6
survivor count (dose: 200.0 mg/kg/injection, schedule: Q04DX003 (ip), vehicle: saline with Tween-80): 6 of 6
survivor count [3]: 2 of 6

COc1cccc2c1C(=O)c1c(O)c3c(c(O)c1C2=O)C[C@@](O)(C(=O)COC(=O)Cc1ccccc1)C[C@@H]3OC1CC(N)C(O)C(C)O1 (stereo partly drawn)
T/C (dose: 3.0 mg/kg/injection, schedule: Q01DX009 (ip), vehicle: saline): 145 % of control

c1cc2ccsc2cn1
survivor count [5]: 1 of 6

From PubChem BioAssay AID328 (DTP/NCI, 2004)
